Patent publication US20170081368A1, “PEPTIDES AS OXYTOCIN AGONISTS” (Hoffmann-La Roche Inc., priority 2014, published 2017)
Part of at least one peptide drawing is inferred or uncertain, most often the ends. Where a SMILES comes first, the peptide text is derived from it.

Molecular target: T1, human Oxytocin (OTR) receptor (Homo sapiens, UniProt P30559)
T1 construct: expressed in transfected cells
T1 sequence (P30559 1-389): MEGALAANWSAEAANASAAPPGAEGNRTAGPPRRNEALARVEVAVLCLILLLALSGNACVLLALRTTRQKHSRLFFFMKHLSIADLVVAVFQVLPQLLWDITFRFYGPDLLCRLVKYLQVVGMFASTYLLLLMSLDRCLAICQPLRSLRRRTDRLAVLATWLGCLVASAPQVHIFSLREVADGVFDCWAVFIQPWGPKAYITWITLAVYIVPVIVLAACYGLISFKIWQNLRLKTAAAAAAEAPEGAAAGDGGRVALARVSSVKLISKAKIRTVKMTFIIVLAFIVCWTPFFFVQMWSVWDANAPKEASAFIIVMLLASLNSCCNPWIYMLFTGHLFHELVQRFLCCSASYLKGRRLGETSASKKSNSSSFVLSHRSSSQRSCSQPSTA
Experiment: Calcium flux assay (FLIPR) in CHO cells expressing human OTR
Type: cell-based
Conditions: agonist mode, read-out: hOT EC50
Excerpt: Chines Hamster Ovary (CHO) cells were transfected with expression plasmids encoding either the human Vla, the human Oxytocin (OTR) or the humanV2 receptor, the later in combination with the chimeric Gqs5 G protein to redirect the signal to Calcium flux. Stable cells were cloned by limiting dilution to yield monoclonal cell lines expressing either human Vla, human V2+Gqs5 or human OTR receptors and selected based on functional responses detected on a fluorometric imaging plate reader (FLIPR) detecting Calcium flux in the cell after receptor activation. The stable cell lines were grown in F-12 K Nutrient Mixture (Kaighns Modification), containing 10% foetal bovine serum (FBS), 1% penicillin-streptomycin, 1% L-glutamate, 200 ug/ml Geneticin at 37° C. in a 10% CO2 incubator at 95% humidity.
Calcium Flux Assays Using Fluorescent Imaging (Fluorometric Imaging Plate Reader, FLIPR)
On the afternoon before the assay, cells were plated at a density of 50,000 cells/well into black 96 well plates with clear bottoms to allow cell inspection and fluorescence measurements from the bottom of each well. The density of cells was sufficient to yield a confluent monolayer the next day. Hanks balanced salt solution, without phenol red, containing 20 mM HEPES (pH 7.3) and 2.5 mM probenecid (assay buffer) was prepared fresh for each experiment. Compound dilutions were made using a Beckman Biomek 2000 laboratory automation workstation, in assay buffer containing 1% DMSO. The dye-loading buffer consisted of a final concentration of 2 μM Fluo-4-AM (dissolved in DMSO and pluronic acid) in assay buffer. The existing culture media was removed from the wells and 100 μl of the dye-loading buffer was added to each well and incubated for approximately 60 min at 37° C. in a 5% CO2 incubator at 95% humidity. Once dye-loaded, the cells were washed thoroughly on an Embla cell washer with the assay buffer to remove any unincorporated dye. Exactly 100 μl assay buffer was left in each well.
Each 96 well plate containing dye-loaded cells was placed into the FLIPR machine and the laser intensity set to a suitable level to detect low basal fluorescence. To test compounds as agonists, 25 μl diluted compound was added to the plate 10 seconds into the fluorescent measurements and fluorescent response was recorded for 5 minutes. The fluorescence data was normalized to the endogenous full agonist dose-response set at 100% for the maximum response and 0% for the minimum. Each agonist concentration-response curve was constructed using a four parameter logistic equation with Microsoft Excel XLFit as follows: Y=Minimum+((Maximum−Minimum)/(1+10^(LogEC50−X)nH)), where y is the % normalized fluorescence, minimum is the minimum y, maximum is the maximum y, log EC50 is the log10 concentration which produces 50% of the maximum induced fluorescence, x is the log10 of the concentration of the agonist compound and H is the slope of the curve (the Hill Coefficient). The maximum value gives the efficacy of the agonist test compound in percentage. The concentration of agonist that produced a half-maximal response is represented by the EC50 value, the logarithm of which yielded the pEC50 value.

Row | Structure (SMILES) | EC50 [nM]
1 | CC[C@H](C)[C@@H]1NC(=O)[C@H](Cc2ccc(O)cc2)NC(=O)CCS(=O)(=O)CC[C@@H](C(=O)N2C[C@@H](F)C[C@H]2C(=O)N[C@@H](CC(C)C)C(=O)NCC(N)=O)NC(=O)[C@H](CC(N)=O)NC(=O)[C@H](CCC(N)=O)NC1=O [Example 6] (HELM PEPTIDE1{Y.I.Q.N.[O=C([C@H](CCS(=O)(=O)CCC(=O)[*:3])N[*:1])[*:2]].[O=C([C@@H]1C[C@H](F)CN1[*:1])[*:2]].L.G.[am]}$PEPTIDE1,PEPTIDE1,1:R1-5:R3$$$V2.0) | 1.6
2 | CC[C@H](C)[C@@H]1NC(=O)[C@H](Cc2ccc(O)cc2)NC(=O)CCS(=O)(=O)CC[C@@H](C(=O)N(C)CC(=O)NC(C)(C)C(=O)NCC(N)=O)NC(=O)[C@H](CC(N)=O)NC(=O)[C@H](CCC(N)=O)NC1=O [Example 10] (HELM PEPTIDE1{Y.I.Q.N.[O=C([C@H](CCS(=O)(=O)CCC(=O)[*:3])N[*:1])[*:2]].[Sar].[Aib].G.[am]}$PEPTIDE1,PEPTIDE1,1:R1-5:R3$$$V2.0; C-terminus assumed; bridges inferred) | 4.7
3 | CC[C@H](C)[C@@H]1NC(=O)[C@H](Cc2ccc(O)cc2)NC(=O)CCS(=O)(=O)CC[C@@H](C(=O)N(C)CC(=O)N[C@@H](CC2CCCCC2)C(=O)NCC(N)=O)NC(=O)[C@H](CC(N)=O)NC(=O)[C@H](CCC(N)=O)NC1=O [Example 11] (HELM PEPTIDE1{Y.I.Q.N.[O=C([C@H](CCS(=O)(=O)CCC(=O)[*:3])N[*:1])[*:2]].[Sar].[Cha].G.[am]}$PEPTIDE1,PEPTIDE1,1:R1-5:R3$$$V2.0; C-terminus assumed; bridges inferred) | 1.4
4 | CC[C@H](C)[C@H](NC(=O)CN(C)C(=O)[C@@H]1CCS(=O)(=O)CCC(=O)N[C@@H](Cc2ccc(O)cc2)C(=O)N[C@@H]([C@@H](C)CC)C(=O)N[C@@H](CCC(N)=O)C(=O)N[C@@H](CC(N)=O)C(=O)N1)C(=O)NCC(N)=O [Example 13] (HELM PEPTIDE1{Y.I.Q.N.[O=C([C@H](CCS(=O)(=O)CCC(=O)[*:3])N[*:1])[*:2]].[Sar].I.G.[am]}$PEPTIDE1,PEPTIDE1,1:R1-5:R3$$$V2.0; C-terminus assumed; bridges inferred) | 1.1
5 | CC[C@H](C)[C@@H]1NC(=O)[C@H](Cc2ccc(O)cc2)NC(=O)CCS(=O)(=O)CC[C@@H](C(=O)N(C)CC(=O)N[C@@H](CO)C(=O)NCC(N)=O)NC(=O)[C@H](CC(N)=O)NC(=O)[C@H](CCC(N)=O)NC1=O [Example 18] (HELM PEPTIDE1{Y.I.Q.N.[O=C([C@H](CCS(=O)(=O)CCC(=O)[*:3])N[*:1])[*:2]].[Sar].S.G.[am]}$PEPTIDE1,PEPTIDE1,1:R1-5:R3$$$V2.0; C-terminus assumed; bridges inferred) | 3.3
